PubChem BioAssay AID504772 – Drosophila RNAi Screening Center – 2011
Test: 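Fly genes whose silencing changes Wnt reporter output triggered by active LRP6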 (primary screen). System: Drosophila clone 8 cells. Reagents: long dsRNA against Drosophila genes. Time to read-out: four days. Conditions: pathway switched on by co-transfected constitutively active LRP6 lacking its extracellular part (DeltaNLRP6). Read-out: 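Wnt reporter luminescence divided by Renilla signal, recorded as a rise or fall, four days after knockdown in cells made active by an LRP6 form missing its extracellular part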. Call rule: 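a gene is picked when its silencing raises Wnt reporter signal by twofold or more and a human counterpart of the fly gene is known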. Meaning of the calls: active = picked as conserved enhancer hit; inactive = not picked.
Only reagents picked out of a larger screen are listed. 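Only primary screen hits listed, as up or down without numbers; fold changes behind calls not deposited; all reporter-lowering hits marked not picked.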 Unmarked entries are inactive. Not given: the amount of reagent, the dose of the treatment.

Knock-down of Rcd5 [DRSC08180] resulted in: reporter change after knockdown reporter signal went up (active).
After knock-down of L [DRSC06666], the screen gave reporter change after knockdown reporter signal went down.
CG44838 [DRSC10330] gave reporter change after knockdown reporter signal went down.
With knock-down of Wdr33 [DRSC12162], the record shows reporter change after knockdown reporter signal went down.
After knock-down of Ada3 [DRSC20321] the results were reporter change after knockdown reporter signal went up.
CG6686 [DRSC02979] gave reporter change after knockdown reporter signal went up (active).
Dp [DRSC07402] scored reporter change after knockdown reporter signal went down.
After knock-down of Nlg3 [DRSC12574], the screen gave reporter change after knockdown reporter signal went down.
For bsd [DRSC05953], the values are reporter change after knockdown reporter signal went up.
For Tip60 [DRSC18661], the values are reporter change after knockdown reporter signal went up.
With knock-down of RnpS1 [DRSC15154], the screen gave reporter change after knockdown reporter signal went up.
After knock-down of SmD2 [DRSC12536], the screen gave reporter change after knockdown reporter signal went up.
With knock-down of Drsl2 [DRSC08160], the record shows reporter change after knockdown reporter signal went down.
Silencing of Taf4 [DRSC11297] came out at: reporter change after knockdown reporter signal went up.
CG44422 [DRSC19380] showed reporter change after knockdown reporter signal went down.
Against Chi [DRSC04602], the entry reads reporter change after knockdown reporter signal went down.

Records listed so far whose target name begins with T or t (2):
Tip60 [DRSC18661] → reporter change after knockdown: reporter signal went up
Taf4 [DRSC11297] → reporter change after knockdown: reporter signal went up

More records follow:
Against nsl1 [DRSC15625] the deposit lists reporter change after knockdown reporter signal went up.
Pp2C1 [DRSC18699] showed reporter change after knockdown reporter signal went up.
EloA [DRSC16109] scored reporter change after knockdown reporter signal went down.
After knock-down of CG5004 [DRSC20123] the results were reporter change after knockdown reporter signal went down.
Against wts [DRSC17096], the values are reporter change after knockdown reporter signal went down.
After knock-down of akirin [DRSC11000], the screen gave reporter change after knockdown reporter signal went down.
Depletion of mi [DRSC04498] came out at: reporter change after knockdown reporter signal went down.
With knock-down of Meics [DRSC11413], the record shows reporter change after knockdown reporter signal went down.
I-t [DRSC16713] showed reporter change after knockdown reporter signal went up.
For p-cup [DRSC19513], the values are reporter change after knockdown reporter signal went down.
Silencing of eEF1delta [DRSC02790] resulted in: reporter change after knockdown reporter signal went up.
After knock-down of CG33543 [DRSC00384], the record shows reporter change after knockdown reporter signal went up.
With knock-down of betaTub85D [DRSC16910], the screen gave reporter change after knockdown reporter signal went up.
After knock-down of Top1 [DRSC20295], the screen gave reporter change after knockdown reporter signal went up.
Knock-down of CG16903 [DRSC18561] resulted in: reporter change after knockdown reporter signal went up.
snf [DRSC18835] showed reporter change after knockdown reporter signal went up.
sr [DRSC17067] gave reporter change after knockdown reporter signal went down.
Xpd [DRSC04666] scored reporter change after knockdown reporter signal went up.
Against vig [DRSC03631], the entry reads reporter change after knockdown reporter signal went up.
With knock-down of sals [DRSC16113], the record shows reporter change after knockdown reporter signal went down.
After knock-down of msl-2 [DRSC00829], the screen gave reporter change after knockdown reporter signal went up.
For CG31368 [DRSC14949] the deposit lists reporter change after knockdown reporter signal went up.
Knock-down of CG32425 [DRSC11739] gave: reporter change after knockdown reporter signal went down.
Against CG15432 [DRSC00447], the entry reads reporter change after knockdown reporter signal went up (active).
For CG14107 [DRSC10110] the deposit lists reporter change after knockdown reporter signal went down.
CG34376 [DRSC14695] gave reporter change after knockdown reporter signal went down.
Against Lmx1a [DRSC10275], the values are reporter change after knockdown reporter signal went down.
Knock-down of lilli [DRSC00708] gave: reporter change after knockdown reporter signal went down.
Knock-down of prd1 [DRSC15227] gave: reporter change after knockdown reporter signal went up.
Knock-down of DIP-alpha [DRSC17892] resulted in: reporter change after knockdown reporter signal went down.
Against CG1161 [DRSC12180], the values are reporter change after knockdown reporter signal went down.
